Here are results for one compound from US20180344199A1, “OPTIMIZED PLACEMENT OF CANNULA FOR DELIVERY OF THERAPEUTICS TO THE BRAIN” (The Regents of the University of California, priority 2010, published 2018).

A short description of series [1]: CED infusion of gadoteridol into NHP thalamus, real-time MRI distribution. The following applies: of 14 thalamic infusions. The format is in vivo, Cynomolgus monkeys and Rhesus macaques.
The nature of series [2]: CED infusion of GDL or free Gadoteridol into NHP putamen, real-time MRI distribution. The format is in vivo, Rhesus macaques and Cynomolgus monkeys. The following applies: of 17 cases with relatively large leakage during CED. Here is the method: Thirteen normal adult NHP, including 11 Rhesus macaques (7 male and 4 female, aged from 8 to 18 years; mean age 11.9 years, weight 4-9.4 kg) and 2 Cynomolgus monkeys (one male and one female, age 7 years for both; weight 5 and 7 kg respectively) were the subjects in the present study. Experimentation was performed according to the National Institutes of Health guidelines and to the protocols approved by the Institutional Animal Care and Use Committee at the University of California San Francisco (San Francisco, Calif.) and at Valley Biosystems (Sacramento, Calif.). Thirteen animals received a total of 25 intracranial infusion of GDL (2 mM) or free Gadoteridol (2 mM, Prohance; Bracco Diagnostics, Princeton, N.J.) into the putamen. Infusions were performed by previously established CED techniques for NHP (Bankiewicz, Eberling et al. 2000). GDL were prepared as previously described (Fiandaca, Varenika et al. 2008) (Krauze, McKnight et al. 2005).
Primates received a baseline MRI before surgery to visualize anatomical landmarks and to generate stereotactic coordinates of the proposed target infusion sites for each animals. NHPs underwent neurosurgical procedures to position the MRI-compatible guide cannula over the putamen. […] Vital signs, such as heart rate and PO2, were monitored throughout the procedure.
Briefly, the infusion system consisted of a fused silica reflux-resistant cannula (Fiandaca, Varenika et al. 2008) (Krauze, McKnight et al. 2005) that was connected to a loading line (containing GDL or free Gadoteridol), an infusion line with oil, and another infusion line with trypan blue solution. […] The length of each infusion cannula was measured to ensure that the distal tip extended 3 mm beyond the length of the respective guide. […]
NHPs were sedated with a mixture of ketamine (Ketaset, 7 mg/kg, IM) and xylazine (Rompun, 3 mg/kg, IM). […] The ear-bar and eye-bar measurements were recorded, and an intravenous line was established. […]

As to `CC(O)CN1CCN(CC(=O)[O-])CCN(CC(=O)[O-])CCN(CC(=O)[O-])CC1.[Gd+3]` (centres unmarked) [Gadoteridol], in series [1], the “cases with excellent distribution in the thalamus” value is 57.1% and the “cases with good distribution in the thalamus with leakage” value was 42.9%. Moreover, in series [2], the “cases with leakage into CC” value is given as 100%, the “cases with leakage into EC” value came out at 5.9% and the “cases with leakage into IC” value amounted to 17.6%.
